From patent publication US20250075147A1, “FRAGRANCE AND FLAVOR COMPOSITIONS COMPRISING NEW FLAVOR AND FRAGRANCE INGREDIENTS” (priority 2023, published 2025)

Key:
[1] = Evaluation by trained and/or certified flavor or fragrance chemists or master perfumers; categorization by commercial prospect; settings: category of commercial prospect, (A) highest > (B) > (C) > (D) lowest; (E) requires further study
odor evaluation panel = assay: Odor evaluation panel rating of odorants by Rate-All-That-Apply (RATA) method with 55-word odor lexicon, plus intensity and pleasantness; set-up: species or system human; settings: for Floral: mean panelist score for odor label floral (RATA); for Fruity: mean panelist score for odor label fruity (RATA); for Spicy: mean panelist score for odor label spicy (RATA); for Sweet: mean panelist score for odor label sweet (RATA); for Pleasantness: mean panelist score for odor pleasantness

Row | Compound | Rating [1] | Floral (odor evaluation panel) | Fruity (odor evaluation panel) | Spicy (odor evaluation panel) | Sweet (odor evaluation panel) | Pleasantness (odor evaluation panel)
1 | N#CNC1=NCCS1 [Compound 374, 4,5-dihydro-1,3-thiazol-2-ylcyanamide] | (D) | 0 | 0 | 0.219 | 0.062 | 2.794
2 | CC1=CC2C3CC(C=C3C)C2C1 (centres unmarked) [Compound 377, 4,9-dimethyltricyclo[5.2.1.02,6]deca-3,8-diene] | (A) | 0.129 | 0 | 0.484 | 0.903 | 4.539
3 | CC(C)COC(=O)c1ccccc1C(=O)OCC(C)C [Compound 378, bis(2-methylpropyl) benzene-1,2-dicarboxylate] | (D) | 0.125 | 0.25 | 0.062 | 0.344 | 5.672
4 | O=Cc1ccc2c(c1)CCO2 [Compound 380, 2,3-dihydro-1-benzofuran-5-carbaldehyde] | (D) | 0.467 | 0.967 | 0.2 | 1.4 | 6.093
5 | NCCC1=CCCCC1 [Compound 382, 2-(cyclohexen-1-yl)ethanamine] | (D) | 0.594 | 0 | 0.219 | 0.469 | 2.294
6 | COC(=O)C(C)(C)C#N [Compound 385, methyl 2-cyano-2-methylpropanoate] | (D) | 0.176 | 0.441 | 0.176 | 0.529 | 3.8
7 | COC(=O)[C@@H](C)Oc1ccc(O)cc1 [Compound 386, methyl (2R)-2-(4-hydroxyphenoxy)propanoate] | (D) | 0.371 | 0.257 | 0.086 | 0.971 | 5.471
8 | CC(=O)C1CC2C=CC1C2 (centres unmarked) [Compound 391, 1-(2-bicyclo[2.2.1]hept-5-enyl)ethanone] | (A) | 0.452 | 0.516 | 0.161 | 1.516 | 4.923
9 | CC(C)OC(=O)C1CCCCC1 [Compound 392, propan-2-yl cyclohexanecarboxylate] | (D) | 0.25 | 2.844 | 0.062 | 2.156 | 6.784
10 | CC1=Nc2ccccc2C1(C)C [Compound 400, 2,3,3-trimethylindole] | (D) | 0.417 | 0.139 | 0.083 | 0.528 | –
11 | CCc1ncc[nH]1 [Compound 401, 2-ethyl-1H-imidazole] | (D) | 0.083 | 0.028 | 0 | 0.139 | –
12 | Cc1ccc(C#N)n1C [Compound 402, 1,5-dimethylpyrrole-2-carbonitrile] | (A) | 0.645 | 0.581 | 0.71 | 2.194 | 6
13 | CNC(=S)N(C)C [Compound 403, 1,1,3-trimethylthiourea] | (D) | 0 | 0 | 0 | 0 | –
14 | CN(C1CCCCC1)C1CCCCC1 [Compound 404, N-cyclohexyl-N-methylcyclohexanamine] | (D) | 0.094 | 0 | 0.156 | 0.062 | 2.956
15 | CC(C)(C)OC(=O)N1CC(=CC#N)C1 [Compound 405, tert-butyl 3-(cyanomethylidene)azetidine-1-carboxylate] | (D) | 0 | 0 | 0 | 0.25 | –
